# Measurements from PubChem BioAssay AID901 (National Center for Advancing Translational Sciences (NCATS), 2007).
# The other results are listed elsewhere or left out. The main result of the screen is listed elsewhere. These columns were measured beside it and carry no call. The list favours compounds with an active or inconclusive main result. Potencies come from curve fits of mixed quality, noted in brackets.
# Experiment: qHTS Assay for Identifying the Cell-Membrane Permeable IMPase Inhibitors
# Settings: CHO-M1 cells, IP1 accumulation, HTRF TR-FRET ratio; measured here: donor channel 620 nm AC50
row,Structure (SMILES),AC50
1,Cc1ccc(NC(=O)c2ccc3c(c2)N(CC(=O)N2CCCCC2)C(=O)C(C)(C)O3)cc1,"31.6 µM [falling, single point]"
2,COC(=O)c1ccc(CSCC(=O)Nc2cc(OC)cc(OC)c2)o1,"0.01 µM [rising, partial curve, poor fit]"
3,COC(=O)C1=C(C)NC(=O)CC1c1ccc(F)c(Br)c1 (centres undefined),"1 µM [falling, full curve]"
4,Cn1c(=O)c2c(-c3ccccc3)n(-n3cnnc3)cc2n(C)c1=O,"5.01 µM [falling, single point]"
5,O=C(NCCc1ccccc1)c1noc2c1CCCCC2,"0.00316 µM [rising, full curve, poor fit]"
6,CCN(CC)CCCN1C(=O)C(O)=C(C(=O)c2cc3ccccc3o2)C1c1ccccn1 (centres undefined),"15.8 µM [rising, single point]"
7,Cc1cc(Cl)ccc1Oc1nc(-c2ccccc2)ncc1S(C)(=O)=O,"15.8 µM [rising, single point]"
8,O=S(=O)(c1cccs1)n1cnc2ccccc21,"0.01 µM [rising, full curve, poor fit]"
9,COc1cc(-c2c(C#N)c(N)nc(SCc3ccncc3)c2C#N)cc(OC)c1OC,"3.98 µM [falling, full curve]"
10,Cc1cccc(N2C(=O)SC(N(C)c3ccccc3)C2=O)c1 (centres undefined),"0.1 µM [falling, full curve]"
11,O=C(CC1C(=O)NCCN1C(=O)c1ccc(F)cc1)OCc1ccccc1 (centres undefined),"5.01 µM [falling, single point]"
12,Fc1cccc(Nc2cc(-n3cccn3)ncn2)c1,"1 µM [falling, full curve]"
13,CCP(=O)(CC)C(C)(C)CP(=O)(c1ccccc1)c1ccccc1,"0.501 µM [rising, full curve, poor fit]"
14,Cc1c(Br)c(C(F)(F)F)nn1CC(=O)N1CCCC1,"5.01 µM [rising, single point]"
15,CN(CCNC(=O)c1ccc(N2CCCC2=O)cc1)CCc1ccccc1,"31.6 µM [falling, single point]"
16,Cc1ccc(C(=O)C2=C(O)C(=O)N(Cc3ccccc3)C2c2cccnc2)o1 (centres undefined),"12.6 µM [rising, partial curve]"
17,Cc1ccc2nc(SCC(=O)NCc3ccco3)c(C#N)cc2c1,"31.6 µM [rising, single point]"
18,CS(=O)(=O)N(CC(O)CON=C1c2ccccc2-c2ccccc21)c1ccc(F)cc1 (centres undefined),"0.158 µM [falling, full curve, poor fit]"
19,CCn1c(CSc2nc(C)cc(C)n2)nnc1SCC(=O)N1CCCc2ccccc21,"0.0501 µM [falling, full curve, poor fit]"

# An excerpt of these results, tab-delimited.
row	Structure (SMILES)	AC50
7	Cc1cc(Cl)ccc1Oc1nc(-c2ccccc2)ncc1S(C)(=O)=O	15.8 µM [rising, single point]
8	O=S(=O)(c1cccs1)n1cnc2ccccc21	0.01 µM [rising, full curve, poor fit]
